Results: patent publication US5580953A (Amylin Pharmaceuticals, Inc., priority 1991, dated 1996)
HELM strings list residues between dots; [ac] is acetyl, [am] amide, other brackets name non-standard units.

Test: Boc solid-phase peptide synthesis; 4-methylbenzhydrylamine resin; NMP/HOBt (Option 1) system; dicyclohexylcarbodiimide and 1-hydroxybenzotriazole
Settings: whole synthesis, scale 0.5 mmol

In the case of “PEPTIDE1{V.L.G.K.L.S.Q.E.L.H.K.L.Q.T.Y.P.R.T.N.T.G.S.G.T.P.[am]}$$$$V2.0”, the “final HPLC purity” value (analytical RP-HPLC on C4, C8 or C18 column (Vydac)) is reported as 99% and the isolated mass is reported as 98 mg.
